Data as given in publication PMC8201403.
No constants are given. Whether binding was seen depends on the method and setting. In cells and extracts the contact can be indirect. Some entries that bind do so weakly or less than the wild type. For some assays here: Where a sequence is shown, tags or fusion partners need not be part of it.

Chains of the proteins cited; added tags and fusions are not shown. Residues count along the entry.
UniProt P02787, residues 20-698: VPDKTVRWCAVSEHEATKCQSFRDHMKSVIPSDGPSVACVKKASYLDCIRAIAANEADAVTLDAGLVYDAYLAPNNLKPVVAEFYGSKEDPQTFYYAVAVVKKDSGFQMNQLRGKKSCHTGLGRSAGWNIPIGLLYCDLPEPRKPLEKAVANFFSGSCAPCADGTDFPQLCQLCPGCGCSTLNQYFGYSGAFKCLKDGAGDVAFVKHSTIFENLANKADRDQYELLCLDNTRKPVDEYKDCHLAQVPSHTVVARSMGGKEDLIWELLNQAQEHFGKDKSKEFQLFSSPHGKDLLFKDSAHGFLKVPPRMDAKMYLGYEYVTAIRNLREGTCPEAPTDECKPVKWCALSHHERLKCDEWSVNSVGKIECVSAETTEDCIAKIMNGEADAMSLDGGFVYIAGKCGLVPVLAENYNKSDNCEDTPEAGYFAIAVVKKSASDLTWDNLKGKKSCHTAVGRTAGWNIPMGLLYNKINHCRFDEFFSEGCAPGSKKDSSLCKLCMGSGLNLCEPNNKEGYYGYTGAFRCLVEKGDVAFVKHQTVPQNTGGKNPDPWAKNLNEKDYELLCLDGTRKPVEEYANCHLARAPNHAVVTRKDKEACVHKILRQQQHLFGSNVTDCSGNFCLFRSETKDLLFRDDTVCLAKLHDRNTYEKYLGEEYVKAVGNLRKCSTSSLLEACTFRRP
UniProt P68871: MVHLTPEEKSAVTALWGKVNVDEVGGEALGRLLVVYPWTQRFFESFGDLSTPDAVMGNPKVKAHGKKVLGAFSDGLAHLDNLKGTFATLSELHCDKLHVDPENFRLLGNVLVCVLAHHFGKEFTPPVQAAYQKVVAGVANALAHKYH
UniProt P02768, residues 25-609: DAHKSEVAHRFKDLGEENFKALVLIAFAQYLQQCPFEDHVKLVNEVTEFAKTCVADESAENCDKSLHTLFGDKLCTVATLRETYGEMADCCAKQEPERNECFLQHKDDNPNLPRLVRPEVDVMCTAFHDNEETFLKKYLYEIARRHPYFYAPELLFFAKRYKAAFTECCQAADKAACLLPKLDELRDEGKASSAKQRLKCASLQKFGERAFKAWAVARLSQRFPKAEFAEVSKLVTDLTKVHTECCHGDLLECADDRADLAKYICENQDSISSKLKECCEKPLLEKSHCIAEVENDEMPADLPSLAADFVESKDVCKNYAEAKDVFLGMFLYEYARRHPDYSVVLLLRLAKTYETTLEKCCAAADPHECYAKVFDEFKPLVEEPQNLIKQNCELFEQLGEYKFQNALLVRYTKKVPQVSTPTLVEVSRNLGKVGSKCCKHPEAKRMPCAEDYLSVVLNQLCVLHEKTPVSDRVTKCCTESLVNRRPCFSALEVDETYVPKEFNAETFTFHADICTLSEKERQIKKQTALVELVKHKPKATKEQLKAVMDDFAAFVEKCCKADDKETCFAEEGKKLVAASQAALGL

T1: N-myristoyltransferase 1 (NMT1), endogenous (human (endogenous in Bel-7402 and Bel-7404)) (UniProt P30419)
T1 sequence: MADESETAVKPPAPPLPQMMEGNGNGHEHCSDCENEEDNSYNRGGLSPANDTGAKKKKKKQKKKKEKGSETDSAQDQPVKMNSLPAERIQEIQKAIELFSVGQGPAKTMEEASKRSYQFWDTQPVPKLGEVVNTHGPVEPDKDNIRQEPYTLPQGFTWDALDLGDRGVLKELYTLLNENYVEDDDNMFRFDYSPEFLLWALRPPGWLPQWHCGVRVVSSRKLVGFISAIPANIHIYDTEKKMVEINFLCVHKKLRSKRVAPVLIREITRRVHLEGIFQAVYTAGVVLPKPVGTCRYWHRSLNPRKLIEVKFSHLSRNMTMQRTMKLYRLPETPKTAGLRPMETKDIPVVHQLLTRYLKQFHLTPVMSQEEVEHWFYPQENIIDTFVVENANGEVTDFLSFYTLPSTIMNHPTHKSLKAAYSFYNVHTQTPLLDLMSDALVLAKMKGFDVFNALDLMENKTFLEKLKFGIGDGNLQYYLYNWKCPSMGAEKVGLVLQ

T2: AHSG-HA (UniProt P02765)
T2 sequence: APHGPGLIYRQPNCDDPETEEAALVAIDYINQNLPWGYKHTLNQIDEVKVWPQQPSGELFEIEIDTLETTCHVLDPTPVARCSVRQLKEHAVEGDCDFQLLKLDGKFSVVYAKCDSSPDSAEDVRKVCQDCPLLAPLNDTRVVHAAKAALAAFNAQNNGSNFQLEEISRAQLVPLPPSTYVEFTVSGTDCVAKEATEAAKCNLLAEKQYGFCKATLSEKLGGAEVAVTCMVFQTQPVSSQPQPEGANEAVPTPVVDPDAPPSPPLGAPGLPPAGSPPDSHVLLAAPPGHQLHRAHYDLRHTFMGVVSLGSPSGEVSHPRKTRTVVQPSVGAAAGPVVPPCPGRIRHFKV


Assays:
[1] = molecular target: T1, N-myristoyltransferase 1 (NMT1), endogenous (human (endogenous in Bel-7402 and Bel-7404)); assay: co-IP; endogenous NMT1 precipitated with anti-NMT1 antibodies in Bel-7402 and Bel-7404 cells overexpressing WT or mutant NDP/NUP-HA, with or without increasing POTEE plasmid
AHSG-HA = molecular target: T2, AHSG-HA; assay: co-IP; NDP/NUP-HA (WT or Mut) precipitated with anti-HA in Bel-7402 cells; RPL7A, HBB and HIST1H4H detected with their antibodies (Figure 7A)
TF-HA = TF-HA (UniProt P02787); assay: as above
[2] = molecular target: HBB, endogenous (human (endogenous in Bel-7402)) (UniProt P68871); assay: co-IP; RPL7A/HBB precipitated with anti-RPL7A/HBB antibodies in Bel-7402 cells; NDP and NUP detected with their antibodies; cells with NMT1 knocked down or ectopically expressed, POTEE knocked down or ectopically expressed (Figures 7F, 7G)

Row | Molecule | binding [1] | other results
1 | ALB-HA (from UniProt P02768 25-609) | binds | –
2 | HBB, endogenous (from UniProt P68871 1-147) | – | binding (AHSG-HA): binds; binding (TF-HA): binds
3 | Serotransferrin (TF), endogenous (from UniProt P02787 20-698) | – | binding [2]: binds
4 | TF-HA (from UniProt P02787 20-698) | binds | –
5 | Alpha 2-HS glycoprotein (AHSG), endogenous (protein, UniProt P02765 19-367) APHGPGLIYRQPNCDDPETEEAALVAIDYINQNLPWGYKHTLNQIDEVKVWPQQPSGELFEIEIDTLETTCHVLDPTPVARCSVRQLKEHAVEGDCDFQLLKLDGKFSVVYAKCDSSPDSAEDVRKVCQDCPLLAPLNDTRVVHAAKAALAAFNAQNNGSNFQLEEISRAQLVPLPPSTYVEFTVSGTDCVAKEATEAAKCNLLAEKQYGFCKATLSEKLGGAEVAVTCMVFQTQPVSSQPQPEGANEAVPTPVVDPDAPPSPPLGAPGLPPAGSPPDSHVLLAAPPGHQLHRAHYDLRHTFMGVVSLGSPSGEVSHPRKTRTVVQPSVGAAAGPVVPPCPGRIRHFKV | – | binding [2]: binds
6 | LXN-HA (protein, UniProt Q9BS40 1-222) MEIPPTNYPASRAALVAQNYINYQQGTPHRVFEVQKVKQASMEDIPGRGHKYHLKFAVEEIIQKQVKVNCTAEVLYPSTGQETAPEVNFTFEGETGKNPDEEDNTFYQRLKSMKEPLEAQNIPDNFGNVSPEMTLVLHLAWVACGYIIWQNSTEDTWYKMVKIQTVKQVQRNDDFIELDYTILLHNIASQEIIPWQMQVLWHPQYGTKVKHNSRLPKEVQLE | binds | –
7 | AHSG-HA (protein, UniProt P02765 19-367) APHGPGLIYRQPNCDDPETEEAALVAIDYINQNLPWGYKHTLNQIDEVKVWPQQPSGELFEIEIDTLETTCHVLDPTPVARCSVRQLKEHAVEGDCDFQLLKLDGKFSVVYAKCDSSPDSAEDVRKVCQDCPLLAPLNDTRVVHAAKAALAAFNAQNNGSNFQLEEISRAQLVPLPPSTYVEFTVSGTDCVAKEATEAAKCNLLAEKQYGFCKATLSEKLGGAEVAVTCMVFQTQPVSSQPQPEGANEAVPTPVVDPDAPPSPPLGAPGLPPAGSPPDSHVLLAAPPGHQLHRAHYDLRHTFMGVVSLGSPSGEVSHPRKTRTVVQPSVGAAAGPVVPPCPGRIRHFKV | binds | –
